The values that follow come from article PMC8165551.

Protein sequences, listed by entry. Tags and fused reporters are not part of them.
UniProt P22216: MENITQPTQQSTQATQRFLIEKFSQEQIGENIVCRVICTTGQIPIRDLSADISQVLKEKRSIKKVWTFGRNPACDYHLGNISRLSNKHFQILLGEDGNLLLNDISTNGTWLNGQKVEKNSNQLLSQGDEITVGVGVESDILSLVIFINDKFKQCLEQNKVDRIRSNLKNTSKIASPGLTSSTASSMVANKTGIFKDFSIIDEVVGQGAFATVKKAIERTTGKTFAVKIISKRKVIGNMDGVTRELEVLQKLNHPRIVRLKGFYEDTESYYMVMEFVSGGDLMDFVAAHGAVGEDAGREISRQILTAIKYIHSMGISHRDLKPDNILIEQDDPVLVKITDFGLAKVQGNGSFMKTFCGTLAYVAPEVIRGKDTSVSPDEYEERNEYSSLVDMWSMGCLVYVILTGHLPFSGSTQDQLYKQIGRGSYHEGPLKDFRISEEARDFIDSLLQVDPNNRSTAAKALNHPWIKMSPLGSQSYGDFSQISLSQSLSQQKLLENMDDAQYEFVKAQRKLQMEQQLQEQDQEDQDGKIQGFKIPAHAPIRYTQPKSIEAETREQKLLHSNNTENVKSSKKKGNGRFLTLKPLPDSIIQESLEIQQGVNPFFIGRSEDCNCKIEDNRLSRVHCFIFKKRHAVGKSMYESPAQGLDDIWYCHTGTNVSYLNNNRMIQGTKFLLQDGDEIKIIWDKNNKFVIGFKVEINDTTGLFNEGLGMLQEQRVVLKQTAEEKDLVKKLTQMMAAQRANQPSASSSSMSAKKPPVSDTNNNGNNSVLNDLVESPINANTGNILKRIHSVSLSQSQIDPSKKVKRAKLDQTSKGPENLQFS

Results are given in words; binding and its absence hold for the method and conditions named. In cells and extracts the contact can be indirect. Some results given as binding are weak or reduced against the parent protein; the word gives no strength. Where a sequence is shown, tags or fusion partners need not be part of it.

Assay [1] concerns the target T1, Dma1, 3X-HA-tagged at the C terminus (S. cerevisiae) (UniProt P38823).
T1 sequence: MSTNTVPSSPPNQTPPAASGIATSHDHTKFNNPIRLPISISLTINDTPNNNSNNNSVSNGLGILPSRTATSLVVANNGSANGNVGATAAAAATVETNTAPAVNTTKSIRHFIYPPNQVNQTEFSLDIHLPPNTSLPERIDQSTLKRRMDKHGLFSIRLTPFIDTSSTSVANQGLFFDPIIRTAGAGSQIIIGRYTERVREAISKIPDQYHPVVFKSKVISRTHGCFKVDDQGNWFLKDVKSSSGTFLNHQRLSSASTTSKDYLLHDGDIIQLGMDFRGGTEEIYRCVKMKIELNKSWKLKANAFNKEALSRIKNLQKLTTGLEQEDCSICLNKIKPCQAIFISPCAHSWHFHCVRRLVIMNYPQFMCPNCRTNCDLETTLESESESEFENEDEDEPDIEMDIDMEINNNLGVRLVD
Nature of the assay: co-IP; 3XHA-tagged Dma1 or Dma2 precipitated from 1 mg yeast lysate (lysis buffer with Universal nuclease and Benzonase) with the indicated antibody overnight at 4 °C in buffer A (50 mM Hepes-KOH pH 7.5, 125 mM potassium acetate, 1% NP-40), Protein A agarose, six washes, immunoblot; cells with phleomycin treatment or no treatment.

Assay [2] deals with T2, Dma2, 3X-HA-tagged at the C terminus (S. cerevisiae) (UniProt P53924).
T2 sequence: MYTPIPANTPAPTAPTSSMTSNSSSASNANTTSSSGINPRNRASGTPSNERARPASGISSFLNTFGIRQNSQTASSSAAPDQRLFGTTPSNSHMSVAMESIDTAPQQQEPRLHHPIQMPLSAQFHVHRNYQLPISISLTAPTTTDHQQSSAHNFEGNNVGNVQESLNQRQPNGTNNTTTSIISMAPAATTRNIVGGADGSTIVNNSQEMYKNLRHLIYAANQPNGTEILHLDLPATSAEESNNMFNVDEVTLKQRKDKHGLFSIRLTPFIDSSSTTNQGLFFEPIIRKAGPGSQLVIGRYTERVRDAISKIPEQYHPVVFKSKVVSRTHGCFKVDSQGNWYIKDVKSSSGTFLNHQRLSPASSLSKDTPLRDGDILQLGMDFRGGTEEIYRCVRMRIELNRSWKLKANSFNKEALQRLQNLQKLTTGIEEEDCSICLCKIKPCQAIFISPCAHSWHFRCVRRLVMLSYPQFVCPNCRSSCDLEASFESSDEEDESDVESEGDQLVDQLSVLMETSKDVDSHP
The assay is described as above.

On to Rad53 (from UniProt P22216 1-821), for which the binding result in assay [1] and in assay [2] was “binds” each time.
